Source: the supplement of paper PMC8728848
The other results are listed elsewhere or left out.

What was measured:
Test in all cases: glycan array binding signal (z-score within array); higher = stronger binding
Conditions in all cases: glycan notation: IUPAC condensed, linker removed
[1] = target: GlcNAc(a1-6)Gal(b1-4)GlcNAc
Outline: (§1)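 The binding signal is a Z-score computed within each array. Data were drawn from 3228 arrays in the Consortium for Functional Glycomics database, restricted to those with a known protein sequence. Scores were averaged over arrays of the same protein sequence at different concentrations or buffers, and over linkers, and negative values can be taken as non-binding.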

[2] = target: GlcNAc(b1-2)Gal(b1-3)GalNAc
Outline: as §1

[3] = target: GlcNAc(b1-2)Man(a1-3)[GlcNAc(b1-2)Man(a1-6)]Man(b1-4)GlcNAc(b1-4)GlcNAc
Outline: as §1

[4] = target: GlcNAc(b1-2)Man(a1-3)[GlcNAc(b1-2)Man(a1-6)]Man(b1-4)GlcNAc(b1-4)[Fuc(a1-6)]GlcNAc
Outline: as §1

[5] = target: GlcNAc(b1-2)Man(a1-3)[GlcNAc(b1-4)][GlcNAc(b1-2)Man(a1-6)]Man(b1-4)GlcNAc(b1-4)GlcNAc
Outline: as §1

[6] = target: GlcNAc(b1-2)Man(a1-3)[GlcNAc(b1-4)][GlcNAc(b1-2)Man(a1-6)]Man(b1-4)GlcNAc(b1-4)[Fuc(a1-6)]GlcNAc
Outline: as §1

[7] = target: GlcNAc(b1-2)[GlcNAc(b1-4)]Man(a1-3)[GlcNAc(b1-2)Man(a1-6)]Man(b1-4)GlcNAc(b1-4)GlcNAc
Outline: as §1

[8] = target: GlcNAc(b1-2)[GlcNAc(b1-4)]Man(a1-3)[GlcNAc(b1-4)][GlcNAc(b1-2)Man(a1-6)]Man(b1-4)GlcNAc(b1-4)GlcNAc
Outline: as §1

[9] = target: GlcNAc(b1-2)[GlcNAc(b1-4)]Man(a1-3)[GlcNAc(b1-4)][GlcNAc(b1-2)[GlcNAc(b1-6)]Man(a1-6)]Man(b1-4)GlcNAc(b1-4)GlcNAc
Outline: as §1

[10] = target: GlcNAc(b1-2)[GlcNAc(b1-4)]Man(a1-3)[GlcNAc(b1-4)][GlcNAc(b1-2)[GlcNAc(b1-6)]Man(a1-6)]Man(b1-4)GlcNAc(b1-4)[Fuc(a1-6)]GlcNAc
Outline: as §1

[11] = target: GlcNAc(b1-2)[GlcNAc(b1-6)]Man(a1-6)[GlcNAc(b1-2)Man(a1-3)]Man(b1-4)GlcNAc(b1-4)GlcNAc
Outline: as §1

[12] = target: GlcNAc(b1-2)[GlcNAc(b1-6)]Man(a1-6)[GlcNAc(b1-2)Man(a1-3)]Man(b1-4)GlcNAc(b1-4)[Fuc(a1-6)]GlcNAc
Outline: as §1

[13] = target: GlcNAc(b1-2)[GlcNAc(b1-6)]Man(a1-6)[GlcNAc(b1-4)][GlcNAc(b1-2)Man(a1-3)]Man(b1-4)GlcNAc(b1-4)GlcNAc
Outline: as §1

[14] = target: GlcNAc(b1-3)Fuc
Outline: as §1

[15] = target: GlcNAc(b1-3)Gal
Outline: as §1

[16] = target: GlcNAc(b1-3)Gal(b1-3)GalNAc
Outline: as §1

[17] = target: GlcNAc(b1-3)Gal(b1-4)Glc
Outline: as §1

[18] = target: GlcNAc(b1-3)Gal(b1-4)GlcNAc
Outline: as §1

[19] = target: GlcNAc(b1-3)Gal(b1-4)GlcNAc(b1-2)Man(a1-3)[GlcNAc(b1-3)Gal(b1-4)GlcNAc(b1-2)Man(a1-6)]Man(b1-4)GlcNAc(b1-4)GlcNAc
Outline: as §1

[20] = target: GlcNAc(b1-3)Gal(b1-4)GlcNAc(b1-2)Man(a1-3)[GlcNAc(b1-3)Gal(b1-4)GlcNAc(b1-2)Man(a1-6)]Man(b1-4)GlcNAc(b1-4)[Fuc(a1-6)]GlcNAc
Outline: as §1

[21] = target: GlcNAc(b1-3)Gal(b1-4)GlcNAc(b1-2)[GlcNAc(b1-3)Gal(b1-4)GlcNAc(b1-6)]Man(a1-6)[GlcNAc(b1-3)Gal(b1-4)GlcNAc(b1-2)Man(a1-3)]Man(b1-4)GlcNAc(b1-4)GlcNAc
Outline: as §1

[22] = target: GlcNAc(b1-3)Gal(b1-4)GlcNAc(b1-3)Gal(b1-4)GlcNAc
Outline: as §1

[23] = target: GlcNAc(b1-3)Gal(b1-4)GlcNAc(b1-3)Gal(b1-4)GlcNAc(b1-2)Man(a1-3)[GlcNAc(b1-3)Gal(b1-4)GlcNAc(b1-3)Gal(b1-4)GlcNAc(b1-2)Man(a1-6)]Man(b1-4)GlcNAc(b1-4)GlcNAc
Outline: as §1

[24] = target: GlcNAc(b1-3)Gal(b1-4)GlcNAc(b1-3)Gal(b1-4)GlcNAc(b1-2)Man(a1-3)[GlcNAc(b1-3)Gal(b1-4)GlcNAc(b1-3)Gal(b1-4)GlcNAc(b1-2)Man(a1-6)]Man(b1-4)GlcNAc(b1-4)[Fuc(a1-6)]GlcNAc
Outline: as §1

[25] = target: GlcNAc(b1-3)Gal(b1-4)GlcNAc(b1-3)Gal(b1-4)GlcNAc(b1-2)[GlcNAc(b1-3)Gal(b1-4)GlcNAc(b1-3)Gal(b1-4)GlcNAc(b1-6)]Man(a1-6)[GlcNAc(b1-3)Gal(b1-4)GlcNAc(b1-3)Gal(b1-4)GlcNAc(b1-2)Man(a1-3)]Man(b1-4)GlcNAc(b1-4)[Fuc(a1-6)]GlcNAc
Outline: as §1

[26] = target: GlcNAc(b1-3)Gal(b1-4)GlcNAc(b1-3)Gal(b1-4)GlcNAc(b1-3)Gal(b1-4)GlcNAc(b1-2)Man(a1-3)[GlcNAc(b1-3)Gal(b1-4)GlcNAc(b1-3)Gal(b1-4)GlcNAc(b1-3)Gal(b1-4)GlcNAc(b1-2)Man(a1-6)]Man(b1-4)GlcNAc(b1-4)GlcNAc
Outline: as §1

[27] = target: GlcNAc(b1-3)Gal(b1-4)GlcNAc(b1-3)Gal(b1-4)GlcNAc(b1-3)Gal(b1-4)GlcNAc(b1-2)Man(a1-3)[GlcNAc(b1-3)Gal(b1-4)GlcNAc(b1-3)Gal(b1-4)GlcNAc(b1-3)Gal(b1-4)GlcNAc(b1-2)Man(a1-6)]Man(b1-4)GlcNAc(b1-4)[Fuc(a1-6)]GlcNAc
Outline: as §1

[28] = target: GlcNAc(b1-3)Gal(b1-4)GlcNAc(b1-3)Gal(b1-4)GlcNAc(b1-3)Gal(b1-4)GlcNAc(b1-2)[GlcNAc(b1-3)Gal(b1-4)GlcNAc(b1-3)Gal(b1-4)GlcNAc(b1-3)Gal(b1-4)GlcNAc(b1-6)]Man(a1-6)[GlcNAc(b1-3)Gal(b1-4)GlcNAc(b1-3)Gal(b1-4)GlcNAc(b1-3)Gal(b1-4)GlcNAc(b1-2)Man(a1-3)]Man(b1-4)GlcNAc(b1-4)[Fuc(a1-6)]GlcNAc
Outline: as §1

[29] = target: GlcNAc(b1-3)Gal(b1-4)GlcNAc(b1-3)Gal(b1-4)GlcNAc(b1-3)Gal(b1-4)GlcNAc(b1-3)Gal(b1-4)GlcNAc(b1-2)Man(a1-3)[GlcNAc(b1-3)Gal(b1-4)GlcNAc(b1-3)Gal(b1-4)GlcNAc(b1-3)Gal(b1-4)GlcNAc(b1-3)Gal(b1-4)GlcNAc(b1-2)Man(a1-6)]Man(b1-4)GlcNAc(b1-4)GlcNAc
Outline: as §1

[30] = target: GlcNAc(b1-3)Gal(b1-4)GlcNAc(b1-3)Gal(b1-4)GlcNAc(b1-3)Gal(b1-4)GlcNAc(b1-3)Gal(b1-4)GlcNAc(b1-2)Man(a1-3)[GlcNAc(b1-3)Gal(b1-4)GlcNAc(b1-3)Gal(b1-4)GlcNAc(b1-3)Gal(b1-4)GlcNAc(b1-3)Gal(b1-4)GlcNAc(b1-2)Man(a1-6)]Man(b1-4)GlcNAc(b1-4)[Fuc(a1-6)]GlcNAc
Outline: as §1

[31] = target: GlcNAc(b1-3)Gal(b1-4)GlcNAc(b1-3)Gal(b1-4)GlcNAc(b1-3)Gal(b1-4)GlcNAc(b1-3)Gal(b1-4)GlcNAc(b1-2)[GlcNAc(b1-3)Gal(b1-4)GlcNAc(b1-3)Gal(b1-4)GlcNAc(b1-3)Gal(b1-4)GlcNAc(b1-3)Gal(b1-4)GlcNAc(b1-6)]Man(a1-6)[GlcNAc(b1-3)Gal(b1-4)GlcNAc(b1-3)Gal(b1-4)GlcNAc(b1-3)Gal(b1-4)GlcNAc(b1-3)Gal(b1-4)GlcNAc(b1-2)Man(a1-3)]Man(b1-4)GlcNAc(b1-4)[Fuc(a1-6)]GlcNAc
Outline: as §1

[32] = target: GlcNAc(b1-3)Gal(b1-4)GlcNAc(b1-3)Gal(b1-4)GlcNAc(b1-3)GalNAc
Outline: as §1

[33] = target: GlcNAc(b1-3)Gal(b1-4)GlcNAc(b1-3)GalNAc
Outline: as §1

[34] = target: GlcNAc(b1-3)Gal(b1-4)GlcNAc(b1-3)[GlcNAc(b1-3)Gal(b1-4)GlcNAc(b1-3)]GalNAc
Outline: as §1

[35] = target: GlcNAc(b1-3)Gal(b1-4)GlcNAc(b1-6)[Gal(b1-3)]GalNAc
Outline: as §1

[36] = target: GlcNAc(b1-3)Gal(b1-4)GlcNAc(b1-6)[GlcNAc(b1-3)Gal(b1-3)]GalNAc
Outline: as §1

[37] = target: GlcNAc(b1-3)Gal(b1-4)GlcNAc(b1-6)[GlcNAc(b1-3)]Gal(b1-4)GlcNAc
Outline: as §1

[38] = target: GlcNAc(b1-3)GalNAc
Outline: as §1

[39] = target: GlcNAc(b1-3)Man
Outline: as §1

[40] = target: GlcNAc(b1-3)[GlcNAc(b1-4)][GlcNAc(b1-6)]GlcNAc
Outline: as §1

[41] = target: GlcNAc(b1-3)[GlcNAc(b1-6)]Gal(b1-4)GlcNAc
Outline: as §1

[42] = target: GlcNAc(b1-3)[GlcNAc(b1-6)]GalNAc
Outline: as §1

[43] = target: GlcNAc(b1-4)Gal(b1-4)GlcNAc
Outline: as §1

[44] = target: GlcNAc(b1-4)GlcNAc
Outline: as §1

[45] = target: GlcNAc(b1-4)GlcNAc(b1-4)GlcNAc
Outline: as §1

B1: LysMD3 (Homo sapiens), Q7Z3D4 (protein)
chain: MAGRHQNRSFPLPGVQSSGQVHAFGNCSDSDILEEDAEVYELRSRGKEKVRRSTSRDRLDDIIVLTKDIQEGDTLNAIALQYCCTVADIKRVNNLISDQDFFALRSIKIPVKKFSSLTETLCPPKGRQTSRHSSVQYSSEQQEILPANDSLAYSDSAGSFLKEVDRDIEQIVKCTDNKRENLNEVVSALTAQQMRFEPDNKNTQRKDPYYGADWGIG
B1 was tested, and the “glycan array binding signal (z-score)” value [1] was 1.03, the “glycan array binding signal (z-score)” value [2] was 0.942 and the “glycan array binding signal (z-score)” value [3] was -0.021. For the same binder, the “glycan array binding signal (z-score)” value [4] was 0.662, the “glycan array binding signal (z-score)” value [5] was 0.189 and the “glycan array binding signal (z-score)” value [6] was 0.374. The “glycan array binding signal (z-score)” value [7] was -0.423, the “glycan array binding signal (z-score)” value [8] was 0.291 and the “glycan array binding signal (z-score)” value [9] was 0.661. For the same binder, the “glycan array binding signal (z-score)” value [10] was -0.54, the “glycan array binding signal (z-score)” value [11] was 0.369 and the “glycan array binding signal (z-score)” value [12] was 1.6. For the same binder, the “glycan array binding signal (z-score)” value [13] was 0.277, the “glycan array binding signal (z-score)” value [14] was -0.685 and the “glycan array binding signal (z-score)” value [15] was -0.379. For the same binder, the “glycan array binding signal (z-score)” value [16] was 1.5, the “glycan array binding signal (z-score)” value [17] was 0.983 and the “glycan array binding signal (z-score)” value [18] was -0.096. The “glycan array binding signal (z-score)” value [19] was 1.01, the “glycan array binding signal (z-score)” value [20] was 1.83 and the “glycan array binding signal (z-score)” value [21] was 0.716. The “glycan array binding signal (z-score)” value [22] was 0.418, the “glycan array binding signal (z-score)” value [23] was 1.26 and the “glycan array binding signal (z-score)” value [24] was 1.8. For the same binder, the “glycan array binding signal (z-score)” value [25] was 1.87, the “glycan array binding signal (z-score)” value [26] was -0.16 and the “glycan array binding signal (z-score)” value [27] was 1.68. The “glycan array binding signal (z-score)” value [28] was 2.41, the “glycan array binding signal (z-score)” value [29] was -0.009 and the “glycan array binding signal (z-score)” value [30] was -1.08. For the same binder, the “glycan array binding signal (z-score)” value [31] was 0.289, the “glycan array binding signal (z-score)” value [32] was -1.31 and the “glycan array binding signal (z-score)” value [33] was -0.553. The “glycan array binding signal (z-score)” value [34] was -0.683, the “glycan array binding signal (z-score)” value [35] was -0.929 and the “glycan array binding signal (z-score)” value [36] was -0.084. For the same binder, the “glycan array binding signal (z-score)” value [37] was 0.404, the “glycan array binding signal (z-score)” value [38] was -0.639 and the “glycan array binding signal (z-score)” value [39] was 0.316. For the same binder, the “glycan array binding signal (z-score)” value [40] was 1.06, the “glycan array binding signal (z-score)” value [41] was -0.9 and the “glycan array binding signal (z-score)” value [42] was 0.094. The “glycan array binding signal (z-score)” value [43] was 0.07, the “glycan array binding signal (z-score)” value [44] was 0.164 and the “glycan array binding signal (z-score)” value [45] was 0.082.
